Test results published in patent US20100081679A1, “DIAMINOPYRIMIDINES AS FUNGICIDES” (Bayer CropScience AG, priority 2007, published 2010).
Some entries share one result that the patent states for a list of compounds. For at least one compound, name, drawing or mass did not settle the structure.

Legend:
Type in all cases: in vivo
Alternaria solani = experiment: Alternaria test (tomato)/protective; details: protective, active compound concentration 500 ppm, evaluation 7 days after inoculation
Venturia inaequalis = experiment: Venturia test (apple)/protective; details: protective, active compound concentration 100 ppm, evaluation 10 days after inoculation
Botrytis cinerea = experiment: Botrytis test (bean)/protective; details: protective, active compound concentration 250 ppm, evaluation 2 days after inoculation

Row | Structure (SMILES) | efficacy (Alternaria solani) | efficacy (Venturia inaequalis) | efficacy (Botrytis cinerea)
1 | Clc1cnc(Nc2ccccc2)nc1NC1CC1 [Example 2, 5-Chloro-N^4-cyclopropyl-N^2-phenylpyrimidine-2,4-diamine] | ≥ 70% | ≥ 70% | ≥ 70%
2 | COc1cc(Nc2ncc(Cl)c(NC3CC3)n2)cc(OC)c1 [Example 3] | ≥ 70% | – | –
3 | CC(=O)c1cccc(Nc2ncc(Cl)c(NC3CC3)n2)c1 [Example 5] | ≥ 70% | – | –
4 | Clc1cnc(Nc2ccccc2)nc1NCC1CC1 [Example 10] | – | ≥ 70% | –
5 | COc1cc(Nc2ncc(Cl)c(NCC3CC3)n2)cc(OC)c1OC [Example 12] | ≥ 70% | – | –
6 | NS(=O)(=O)c1cccc(Nc2ncc(Cl)c(NC3CC3)n2)c1 [Example 15, 3-{[5-Chloro-4-(cyclopropylamino)pyrimidin-2-yl]amino}benzenesulphonamide] | – | ≥ 70% | –
7 | O=S(=O)(c1cccc(Nc2ncc(Cl)c(NC3CC3)n2)c1)N1CCOCC1 [Example 19] | ≥ 70% | – | –
8 | CCCCNS(=O)(=O)c1ccc(Nc2ncc(Cl)c(NC3CC3)n2)cc1 [Example 22] | ≥ 70% | – | –
9 | CC(=O)NS(=O)(=O)c1ccc(Nc2ncc(Cl)c(NC3CC3)n2)cc1 [Example 24] | – | ≥ 70% | –
10 | CN(C)S(=O)(=O)c1cccc(Nc2ncc(Cl)c(NC3CC3)n2)c1 [Example 28] | ≥ 70% | ≥ 70% | –
11 | Cl.Clc1cnc(Nc2ccccc2)nc1NC1CC1 [Example 29] | – | ≥ 70% | ≥ 70%
12 | Brc1cnc(Nc2ccccc2)nc1NC1CC1 [Example 30] | – | ≥ 70% | ≥ 70%
13 | O=C1CCCN1c1ccc(Nc2ncc(Cl)c(NC3CC3)n2)cc1 [Example 34] | – | ≥ 70% | –
14 | O=C(O)c1ccc(Nc2ncc(Cl)c(NC3CC3)n2)cc1 [Example 35] | ≥ 70% | – | –
15 | COC(=O)c1ccc(Nc2ncc(Cl)c(NC3CC3)n2)cc1 [Example 37] | – | ≥ 70% | –
16 | CC(C)NC(=O)c1ccc(Nc2ncc(Cl)c(NC3CC3)n2)cc1 [Example 43, 4-{[5-Chloro-4-(cyclopropylamino)pyrimidin-2-yl]amino}-N-isopropylbenzamide] | – | ≥ 70% | –
17 | CC(=O)c1ccc(Nc2ncc(Cl)c(NC3CC3)n2)cc1.Cl [Example 45] | ≥ 70% | ≥ 70% | –
18 | Cc1ccc(Nc2ncc(Cl)c(NC3CC3)n2)cc1S(=O)(=O)N(C)C [Example 47] | ≥ 70% | – | –
19 | CNS(=O)(=O)Cc1ccc(Nc2ncc(Cl)c(NC3CC3)n2)cc1 [Example 48] | – | ≥ 70% | –
20 | CS(=O)(=O)c1ccc(Nc2ncc(Cl)c(NC3CC3)n2)cc1 [Example 50] | ≥ 70% | – | –
21 | Cc1cnc(Nc2ccccc2)nc1NC1CC1 [Example 51] | ≥ 70% | ≥ 70% | –
22 | O=C1Cc2cc(Nc3ncc(Cl)c(NC4CC4)n3)ccc2N1 [Example 56] | ≥ 70% | – | –
23 | CC(C)(C)C(=O)Cc1ccc(Nc2ncc(Cl)c(NC3CC3)n2)cc1 [Example 59] | ≥ 70% | ≥ 70% | –
24 | COC(=O)Nc1ccc(Nc2ncc(Cl)c(NC3CC3)n2)cc1 [Example 60] | ≥ 70% | ≥ 70% | ≥ 70%
25 | C=CCS(=O)(=O)c1ccc(Nc2ncc(Cl)c(NC3CC3)n2)cc1 [Example 61] | ≥ 70% | ≥ 70% | –
26 | CC(=O)N(c1ccc(Nc2ncc(Cl)c(NC3CC3)n2)cc1)C1CC1 [Example 63] | ≥ 70% | – | ≥ 70%

Row | Structure (SMILES) | efficacy (Alternaria solani) | efficacy (Venturia inaequalis) | efficacy (Botrytis cinerea)
27 | CC1(C(=O)Nc2ccc(Nc3ncc(Cl)c(NC4CC4)n3)cc2)CC1 [Example 64] | ≥ 70% | – | ≥ 70%
28 | CC(C)(CF)C(=O)Nc1ccc(Nc2ncc(Cl)c(NC3CC3)n2)cc1 [Example 67] | ≥ 70% | ≥ 70% | ≥ 70%
29 | FC(F)(F)c1nc2ccc(Nc3ncc(Cl)c(NC4CC4)n3)cc2[nH]1 [Example 68] | ≥ 70% | ≥ 70% | ≥ 70%
30 | CSc1ccc(Nc2ncc(Cl)c(NC3CC3)n2)cc1 [Example 69] | ≥ 70% | ≥ 70% | ≥ 70%
31 | Clc1cnc(Nc2ccccc2)nc1NC1CC1 [Example 70] | ≥ 70% | ≥ 70% | ≥ 70%
32 | Clc1cnc(Nc2ccc3[nH]ccc3c2)nc1NC1CC1 [Example 71] | ≥ 70% | ≥ 70% | ≥ 70%
33 | CC(C)(C)C(=O)Nc1ccc(Nc2ncc(Cl)c(NC3CC3)n2)cc1 [Example 72] | ≥ 70% | ≥ 70% | ≥ 70%
34 | O=C(c1ccc(Nc2ncc(Cl)c(NC3CC3)n2)cc1)C(F)(F)F [Example 73] | ≥ 70% | ≥ 70% | –
35 | CSc1cccc(Nc2ncc(Cl)c(NC3CC3)n2)c1 [Example 74] | – | ≥ 70% | –
36 | Oc1ccc(Nc2ncc(Cl)c(NC3CC3)n2)cc1 [Example 75] | ≥ 70% | ≥ 70% | ≥ 70%
37 | Clc1cnc(Nc2ccccc2)nc1NC1CC1 [Example 76] | – | ≥ 70% | –
38 | Oc1cccc(Nc2ncc(Cl)c(NC3CC3)n2)c1 [Example 77] | ≥ 70% | ≥ 70% | –
39 | CN(C)S(=O)(=O)c1ccc(Nc2ncc(Cl)c(NC3CC3)n2)cc1.Cl [Example 78] | – | ≥ 70% | –
40 | Fc1ccc(Nc2ncc(Cl)c(NC3CC3)n2)cc1 [Example 80] | – | ≥ 70% | ≥ 70%
41 | O=C(Nc1cccc(Nc2ncc(Cl)c(NC3CC3)n2)c1)C1CC1 [Example 84] | ≥ 70% | – | –
42 | CC(C)C(=O)Nc1cccc(Nc2ncc(Cl)c(NC3CC3)n2)c1 [Example 86] | – | ≥ 70% | –
43 | CC(C)(C)C(=O)Nc1cccc(Nc2ncc(Cl)c(NC3CC3)n2)c1 [Example 91] | ≥ 70% | – | –
44 | O=C(NCc1ccc(Nc2ncc(Cl)c(NC3CC3)n2)cc1)OCc1ccccc1 [Example 95] | ≥ 70% | – | –
45 | O=C1CCCN1c1ccc(Nc2ncc(Br)c(NC3CC3)n2)cc1 [Example 97] | ≥ 70% | – | –
46 | O=C(Nc1cccc(Nc2ncc(Cl)c(NC3CC3)n2)c1)c1ccco1 [Example 99] | ≥ 70% | – | –
47 | CC(C)(C)OC(=O)Nc1ccc(Nc2ncc(Cl)c(NC3CC3)n2)cc1 [Example 100] | ≥ 70% | – | –
48 | CC(=O)c1cc(Nc2ncc(Cl)c(NC3CC3)n2)ccc1O [Example 101] | ≥ 70% | – | –
49 | CN(C)S(=O)(=O)Oc1ccc(Nc2ncc(Cl)c(NC3CC3)n2)cc1 [Example 102] | ≥ 70% | – | –
50 | CN1CC(=O)N(c2ccc(Nc3ncc(Cl)c(NC4CC4)n3)cc2)C1=O [Example 107] | ≥ 70% | – | –
51 | COCC(C)Nc1ccc(Nc2ncc(Cl)c(NC3CC3)n2)cc1 (stereo not drawn) [Example 110] | ≥ 70% | – | –
